{"source": "paper PMC11194072", "about": "“Cdc13 exhibits dynamic DNA strand exchange in the presence of telomeric DNA”", "key": {"[1]": {"biological_target": "T1, Cdc13 OB1 (Saccharomyces cerevisiae) (UniProt P32797)", "T1 sequence (looked up, limits assumed)": "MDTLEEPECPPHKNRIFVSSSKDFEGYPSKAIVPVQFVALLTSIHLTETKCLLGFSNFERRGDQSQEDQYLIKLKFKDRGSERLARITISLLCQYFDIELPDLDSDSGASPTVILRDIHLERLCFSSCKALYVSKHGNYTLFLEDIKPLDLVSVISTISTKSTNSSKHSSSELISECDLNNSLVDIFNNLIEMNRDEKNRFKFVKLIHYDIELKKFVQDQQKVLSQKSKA", "experiment": "BLI", "settings": "failed to robustly bind (data not shown); 25 mM HEPES pH 8.0, 5% glycerol, 50 mM NaOAc, 150 mM NaCl, 7.5 mM MgCl2, 0.01% Tween 20; BLI without glycerol at ~23°C; recombinant protein; protein details: N-terminal His6-SUMO, C-terminal 3xFLAG; label: 5' biotin-TEG; single-stranded DNA"}, "[2]": {"biological_target": "T2, Cdc13 full-length (Sf9) (Saccharomyces cerevisiae) (UniProt P32797)", "T2 sequence (looked up)": "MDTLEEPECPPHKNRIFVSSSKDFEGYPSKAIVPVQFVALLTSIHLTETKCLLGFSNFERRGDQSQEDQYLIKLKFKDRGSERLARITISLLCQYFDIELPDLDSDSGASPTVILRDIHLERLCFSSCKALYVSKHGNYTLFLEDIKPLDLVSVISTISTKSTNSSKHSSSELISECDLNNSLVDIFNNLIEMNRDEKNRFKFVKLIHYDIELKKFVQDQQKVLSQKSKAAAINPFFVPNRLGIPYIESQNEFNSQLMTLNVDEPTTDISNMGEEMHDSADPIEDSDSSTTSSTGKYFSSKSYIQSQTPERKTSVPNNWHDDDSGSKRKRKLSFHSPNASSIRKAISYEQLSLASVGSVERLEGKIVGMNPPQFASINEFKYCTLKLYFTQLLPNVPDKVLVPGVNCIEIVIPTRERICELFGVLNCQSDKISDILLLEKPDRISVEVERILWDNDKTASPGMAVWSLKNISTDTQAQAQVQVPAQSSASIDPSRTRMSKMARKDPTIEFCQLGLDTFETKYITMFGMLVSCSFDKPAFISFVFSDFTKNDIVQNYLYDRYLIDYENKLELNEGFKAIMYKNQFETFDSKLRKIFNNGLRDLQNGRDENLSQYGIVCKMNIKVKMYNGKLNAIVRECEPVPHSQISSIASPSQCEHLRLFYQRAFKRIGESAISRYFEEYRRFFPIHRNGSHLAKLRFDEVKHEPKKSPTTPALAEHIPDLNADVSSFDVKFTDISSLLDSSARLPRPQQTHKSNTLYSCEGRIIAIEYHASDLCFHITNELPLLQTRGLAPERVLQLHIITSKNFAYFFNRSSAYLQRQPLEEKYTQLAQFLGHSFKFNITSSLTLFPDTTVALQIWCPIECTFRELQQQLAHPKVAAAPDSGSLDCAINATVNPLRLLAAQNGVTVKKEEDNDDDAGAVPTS", "experiment": "competition with a labelled probe", "settings": "25 mM HEPES pH 8.0, 5% glycerol, 50 mM NaOAc, 150 mM NaCl, 7.5 mM MgCl2, 0.01% Tween 20, EMSA/DDE at 30°C, residues 1-924, protein details: N-terminal SUMO-His6 tag, C-terminal FLAG tag, single-stranded DNA; for IC50: EC50, prebound IR700-Tel30G 2 nM"}, "[3]": {"biological_target": "T2, Cdc13 full-length (Sf9) (Saccharomyces cerevisiae)", "experiment": "EMSA", "settings": "IR700-Tel15G prebound, then Tel11G challenge; 25 mM HEPES pH 8.0, 5% glycerol, 50 mM NaOAc, 150 mM NaCl, 7.5 mM MgCl2, 0.01% Tween 20; EMSA/DDE at 30°C; recombinant protein; residues 1-924; protein details: N-terminal SUMO-His6 tag, C-terminal FLAG tag; label: none, or 5' IRDye700; single-stranded DNA"}, "[4]": {"system": "RPA heterotrimer (Rfa1-3) (Saccharomyces cerevisiae)", "experiment": "competition with a labelled probe", "settings": "prebound labelled Tel30G, weak even at 100 nM; 25 mM HEPES pH 8.0, 5% glycerol, 50 mM NaOAc, 150 mM NaCl, 7.5 mM MgCl2, 0.01% Tween 20; EMSA/DDE at 30°C; recombinant protein; protein details: untagged; label: none, or 5' IRDye700/800; single-stranded DNA"}}, "note": "Construct, isoform or probe ends are uncertain for at least one entry. For some of these results: Weaker means in comparison with the reference protein, sequence or condition of that experiment. For some of these results: Where a protein sequence is shown, tags need not be part of it. For some of these results: At least one verdict rests on a figure or table, not on a statement of the authors."}
{"sequence": "CGCCATGCTGATCCGTGTGGTGTGTGTGGG [Biotinylated Tel30G (MB2081)]", "values": [{"measurement": "binding result", "setting": "[1]", "value": "binds more weakly"}]}
{"sequence": "GTGTGGGTGTG [Tel11G (MB1983 / MB2018 IR700)]", "values": [{"measurement": "IC50", "setting": "[2]; Cdc13 dimer 3.75 nM, recombinant protein, label: none, or 5' IRDye700", "value": 13.5, "unit": "nM"}, {"measurement": "binding result", "setting": "[2]; Tel11G failed to compete with prebound IR700-Tel50G, recombinant protein, label: none, or 5' IRDye700", "value": "binds more weakly"}]}
{"sequence": "GTGTGGGTGTGGTGTGGGTGTGGTGTGGGTGTGTGGGTGTGGTGTGGGTG [Tel50G unlabelled (MB1117)]", "values": [{"measurement": "binding result", "setting": "[2]; poor competitor of prebound IR700-Tel50G, even at 25-fold excess, recombinant protein", "value": "binds more weakly"}]}
{"sequence": "TGTGGTGTGTGTGGG [Tel15G (MB1013 / MB1929 IR700)]", "values": [{"measurement": "binding result", "setting": "[3]", "value": "binds"}, {"measurement": "IC50", "setting": "[2]; recombinant …, label: none, or 5' IRDye700", "value": 7.2, "unit": "nM"}]}
{"sequence": "TTTTTTTTTTTTTTTTTTTTTTTTTTTTTT [Poly(dT)30 (MB464 / MB1755 IR700 / MB1982 IR800)]", "values": [{"measurement": "binding result", "setting": "[4]", "value": "binds more weakly"}]}
